This is one part of the list.
Key:
Test in all cases: glycan array binding signal (z-score within array); higher = stronger binding
Conditions in all cases: glycan notation: IUPAC condensed, linker removed
[1] = molecular target: GlcNAc(b1-4)GlcNAc(b1-4)GlcNAc(b1-4)GlcNAc(b1-4)GlcNAc
How it was run: (§1)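 Arrays were curated from the Consortium for Functional Glycomics database, 3228 in total, and kept only where the protein sequence was available. Binding is expressed as a within-array Z-score. This score was averaged across arrays of the same protein sequence at different concentrations or buffers and across linkers, and negative values can be read as non-binding.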

[2] = molecular target: GlcNAc(b1-4)GlcNAc(b1-4)GlcNAc(b1-4)GlcNAc(b1-4)GlcNAc(b1-4)GlcNAc
How it was run: as §1

[3] = molecular target: GlcNAc(b1-4)[GlcNAc(b1-6)]GalNAc
How it was run: as §1

[4] = molecular target: GlcNAc(b1-6)Gal(b1-4)GlcNAc
How it was run: as §1

GlcNAc(b1-6)GalNAc = molecular target: GlcNAc(b1-6)GalNAc
How it was run: as §1

[5] = molecular target: GlcNAc6S(b1-3)Gal(b1-4)GlcNAc
How it was run: as §1

Kdn(a2-3)Gal(b1-3)GalNAc = molecular target: Kdn(a2-3)Gal(b1-3)GalNAc
How it was run: as §1

Kdn(a2-3)Gal(b1-3)GlcNAc = molecular target: Kdn(a2-3)Gal(b1-3)GlcNAc
How it was run: as §1

Kdn(a2-3)Gal(b1-4)Glc = molecular target: Kdn(a2-3)Gal(b1-4)Glc
How it was run: as §1

Kdn(a2-3)Gal(b1-4)GlcNAc = molecular target: Kdn(a2-3)Gal(b1-4)GlcNAc
How it was run: as §1

[6] = molecular target: Kdn(a2-3)Gal(b1-4)[Fuc(a1-3)]GlcNAc
How it was run: as §1

Kdn(a2-6)Gal(b1-4)GlcNAc = molecular target: Kdn(a2-6)Gal(b1-4)GlcNAc
How it was run: as §1

[7] = molecular target: Man(a1-2)Man(a1-2)Man(a1-3)Man
How it was run: as §1

[8] = molecular target: Man(a1-2)Man(a1-2)Man(a1-6)[Man(a1-3)]Man
How it was run: as §1

Man(a1-2)Man(a1-3)Man = molecular target: Man(a1-2)Man(a1-3)Man
How it was run: as §1

[9] = molecular target: Man(a1-2)Man(a1-3)[Man(a1-2)Man(a1-6)]Man
How it was run: as §1

[10] = molecular target: Man(a1-2)Man(a1-3)[Man(a1-2)Man(a1-6)]Man(a1-6)[Man(a1-2)Man(a1-2)Man(a1-3)]Man
How it was run: as §1

[11] = molecular target: Man(a1-2)Man(a1-3)[Man(a1-2)Man(a1-6)]Man(a1-6)[Man(a1-2)Man(a1-2)Man(a1-3)]Man(b1-4)GlcNAc(b1-4)GlcNAc
How it was run: as §1

[12] = molecular target: Man(a1-2)Man(a1-3)[Man(a1-6)]Man(a1-6)[Man(a1-2)Man(a1-3)]Man(b1-4)GlcNAc(b1-4)GlcNAc
How it was run: as §1

[13] = molecular target: Man(a1-2)Man(a1-6)[Man(a1-3)]Man(a1-6)[Man(a1-2)Man(a1-2)Man(a1-3)]Man
How it was run: as §1

[14] = molecular target: Man(a1-2)Man(a1-6)[Man(a1-3)]Man(a1-6)[Man(a1-2)Man(a1-2)Man(a1-3)]Man(b1-4)GlcNAc(b1-4)GlcNAc
How it was run: as §1

Man(a1-3)[Man(a1-6)]Man = molecular target: Man(a1-3)[Man(a1-6)]Man
How it was run: as §1

[15] = molecular target: Man(a1-3)[Man(a1-6)]Man(a1-6)[Man(a1-2)Man(a1-3)]Man(b1-4)GlcNAc(b1-4)GlcNAc
How it was run: as §1

[16] = molecular target: Man(a1-3)[Man(a1-6)]Man(a1-6)[Man(a1-3)]Man
How it was run: as §1

[17] = molecular target: Man(a1-3)[Man(a1-6)]Man(a1-6)[Man(a1-3)]Man(b1-4)GlcNAc(b1-4)GlcNAc
How it was run: as §1

[18] = molecular target: Man(a1-3)[Man(a1-6)]Man(b1-4)GlcNAc(b1-4)GlcNAc
How it was run: as §1

[19] = molecular target: Man(a1-3)[Man(a1-6)]Man(b1-4)GlcNAc(b1-4)[Fuc(a1-6)]GlcNAc
How it was run: as §1

Man(a1-6)Man = molecular target: Man(a1-6)Man
How it was run: as §1

Man(b1-4)GlcNAc = molecular target: Man(b1-4)GlcNAc
How it was run: as §1

MurNAc(b1-4)GlcNAc = molecular target: MurNAc(b1-4)GlcNAc
How it was run: as §1

Neu5Ac(a2-3)Gal = molecular target: Neu5Ac(a2-3)Gal
How it was run: as §1

[20] = molecular target: Neu5Ac(a2-3)Gal(b1-3)GalNAc
How it was run: as §1

[21] = molecular target: Neu5Ac(a2-3)Gal(b1-3)GalNAc(b1-3)Gal(a1-4)Gal(b1-4)Glc
How it was run: as §1

[22] = molecular target: Neu5Ac(a2-3)Gal(b1-3)GalNAc(b1-4)Gal(b1-4)Glc
How it was run: as §1

[23] = molecular target: Neu5Ac(a2-3)Gal(b1-3)GalNAc(b1-4)[Neu5Ac(a2-3)]Gal(b1-4)Glc
How it was run: as §1

[24] = molecular target: Neu5Ac(a2-3)Gal(b1-3)GalNAc(b1-4)[Neu5Ac(a2-8)Neu5Ac(a2-3)]Gal(b1-4)Glc
How it was run: as §1

[25] = molecular target: Neu5Ac(a2-3)Gal(b1-3)GalNAc6S
How it was run: as §1

B1: Epa2 (Candida glabrata) (protein)
chain: MGSSHHHHHHSSGLVPRGSHMASSKDPTSFPMGCSPQVLKTQPGLAVKLYSYGHPVPGCAYNTYQYPDFPRSGYKKERKLADITGVNGRIDIDLKPNDPCRVLSGNLPSNYNYQNTLTYTNFTMILYGYFQPKVTGYHTFNLEADDLLFMNLGAGNAFDCCRAESTLDNFGNYQSYSIWGTDKATADLTVFLVSGIYYPIRLFYVNRDNNAVLDFSFSTEFNKEIIHDFTSYFFSASDEEQCPGNI
glycan array binding signal (z-score) [1]: 0.017
glycan array binding signal (z-score) [2]: -0.072
glycan array binding signal (z-score) [3]: -0.769
glycan array binding signal (z-score) [4]: 0.895
glycan array binding signal (z-score) (GlcNAc(b1-6)GalNAc): -0.198
glycan array binding signal (z-score) [5]: 0.793
glycan array binding signal (z-score) (Kdn(a2-3)Gal(b1-3)GalNAc): 2.25
glycan array binding signal (z-score) (Kdn(a2-3)Gal(b1-3)GlcNAc): -0.787
glycan array binding signal (z-score) (Kdn(a2-3)Gal(b1-4)Glc): 0.103
glycan array binding signal (z-score) (Kdn(a2-3)Gal(b1-4)GlcNAc): -0.501
glycan array binding signal (z-score) [6]: 0.545
glycan array binding signal (z-score) (Kdn(a2-6)Gal(b1-4)GlcNAc): 0.369
glycan array binding signal (z-score) [7]: 0.007
glycan array binding signal (z-score) [8]: 0.263
glycan array binding signal (z-score) (Man(a1-2)Man(a1-3)Man): -0.608
glycan array binding signal (z-score) [9]: -0.632
glycan array binding signal (z-score) [10]: -0.808
glycan array binding signal (z-score) [11]: -0.098
glycan array binding signal (z-score) [12]: -1.18
glycan array binding signal (z-score) [13]: -0.217
glycan array binding signal (z-score) [14]: -0.451
glycan array binding signal (z-score) (Man(a1-3)[Man(a1-6)]Man): 0.472
glycan array binding signal (z-score) [15]: 1.13
glycan array binding signal (z-score) [16]: 0.286
glycan array binding signal (z-score) [17]: 0.287
glycan array binding signal (z-score) [18]: -0.254
glycan array binding signal (z-score) [19]: 0.449
glycan array binding signal (z-score) (Man(a1-6)Man): 0.561
glycan array binding signal (z-score) (Man(b1-4)GlcNAc): 0.822
glycan array binding signal (z-score) (MurNAc(b1-4)GlcNAc): 0.27
glycan array binding signal (z-score) (Neu5Ac(a2-3)Gal): 0.709
glycan array binding signal (z-score) [20]: -0.038
glycan array binding signal (z-score) [21]: 0.662
glycan array binding signal (z-score) [22]: 0.284
glycan array binding signal (z-score) [23]: -0.342
glycan array binding signal (z-score) [24]: -0.389
glycan array binding signal (z-score) [25]: -0.993

Source: the supplement of paper PMC8728848
